In patent US20090291081A1:
No constants are given. Whether binding was seen depends on the method and setting. Some results given as binding are weak or reduced against the parent protein; the word gives no strength.

Amino acid sequences for entries named in this document (tags omitted). Residues count along the entry.
UniProt P01584, residues 117-269: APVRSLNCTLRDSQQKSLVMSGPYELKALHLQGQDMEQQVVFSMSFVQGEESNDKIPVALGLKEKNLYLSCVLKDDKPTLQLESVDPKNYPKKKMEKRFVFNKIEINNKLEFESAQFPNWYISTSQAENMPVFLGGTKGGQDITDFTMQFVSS

Target: human IL-1β (human) (UniProt P01584)
Assay: Table 60 heading; dAbs from selection on antigen

Row | binding | Binder
1 | binds | ABT2-108 (protein) VH: EVQLLESGGGLVQPGGSLRLSCAASGFTFAEYTMMWVRQAPGKGLEWVSRIGQDGKNTYYADSVKGRFTISRDNSKNTLYLQMNSLRAEDTAVYYCAKYTGRVGVHHLFDYWGQGTLVTSS
2 | binds | ABT2-108-613 (protein) VH: EVQLLESGGGLVQPGGSLRLSCAASGFTFAEYTMMWVRQAPGKGLEWVSRIGQDGKNTYYADSVKGRFTISRDNSKNTLYLQMNSLRAEDTAVYYCAKYTGRVFEHHLFDYWGQGTLVTVSS
